Assay results taken from paper doi:10.1101/2020.06.27.175620 (bioRxiv, 2020).
Read-outs that look alike come from different tables or passages of the source. No constants are given. Whether binding was seen depends on the method and setting. Binding seen in cells or lysates may run through a third protein. Binding can be weak; no strength is given.

The chains behind the UniProt entries cited, without tags or fusion partners. Where a name states a change or a piece, a line headed by the entry shows the natural chain unless it says otherwise.
UniProt D5ARP5: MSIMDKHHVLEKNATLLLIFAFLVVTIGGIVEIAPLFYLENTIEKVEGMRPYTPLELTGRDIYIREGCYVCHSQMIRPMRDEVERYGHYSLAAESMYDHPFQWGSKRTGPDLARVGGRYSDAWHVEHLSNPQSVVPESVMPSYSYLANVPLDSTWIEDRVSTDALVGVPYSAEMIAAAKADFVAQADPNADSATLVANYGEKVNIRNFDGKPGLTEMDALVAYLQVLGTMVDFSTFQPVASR
UniProt Q05389: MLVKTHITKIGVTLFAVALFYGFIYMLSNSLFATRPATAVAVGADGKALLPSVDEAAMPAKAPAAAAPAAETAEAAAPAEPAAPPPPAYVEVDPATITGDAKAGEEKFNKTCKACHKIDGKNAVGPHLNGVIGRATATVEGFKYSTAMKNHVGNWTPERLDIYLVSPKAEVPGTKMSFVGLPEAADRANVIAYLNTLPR

B1: cytochrome c2 (soluble cytochrome c) (protein, UniProt P00094 22-137)
chain: GDAAKGEKEFNKCKTCHSIIAPDGTEIVKGAKTGPNLYGVVGRTAGTYPEFKYKDSIVALGASGFAWTEEDIATYVKDPGAFLKEKLDDKKAKTGMAFKLAKGGEDVAAYLASVVK

What was measured:
Assay in all cases: cross-linking
[1] = molecular target: T1, Rieske FeS protein of CIII2 (Rhodobacter capsulatus) (UniProt D5ANZ2)
T1 sequence: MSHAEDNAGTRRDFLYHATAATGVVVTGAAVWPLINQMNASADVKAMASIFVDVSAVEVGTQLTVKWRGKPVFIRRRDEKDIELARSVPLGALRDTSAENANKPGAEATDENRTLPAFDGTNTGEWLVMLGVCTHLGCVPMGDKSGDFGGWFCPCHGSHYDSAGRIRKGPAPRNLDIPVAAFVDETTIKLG

[2] = molecular target: T2, cytochrome c1 of CIII2 (Rhodobacter capsulatus) (UniProt D5ANZ4)
T2 sequence: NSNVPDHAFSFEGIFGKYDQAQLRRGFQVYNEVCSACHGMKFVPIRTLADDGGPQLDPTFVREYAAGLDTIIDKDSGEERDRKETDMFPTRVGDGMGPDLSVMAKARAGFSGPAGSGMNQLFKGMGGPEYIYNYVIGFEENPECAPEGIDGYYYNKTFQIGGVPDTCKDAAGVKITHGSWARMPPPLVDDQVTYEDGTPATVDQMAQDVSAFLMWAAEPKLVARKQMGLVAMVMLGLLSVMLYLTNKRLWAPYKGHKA

[3] = molecular target: T1, Rieske FeS protein of CIII2 (Rhodobacter capsulatus); remark: listed apart in the source
[4] = molecular target: CcoO subunit of the cbb3-type CIV (Rhodobacter capsulatus) (UniProt D5ARP5)

| Molecule | binding [1] | binding [2] | binding [3] | binding [4] |
| --- | --- | --- | --- | --- |
| cyt c domain of cytochrome cy (from UniProt Q05389) (domain or fragment) | binds weakly | binds weakly | binds weakly | – |
| B1 | – | – | – | binds |
